## Screening data, single-dose tests

The filed quantity is “Percent Effect” (%). How 0% and 100% were set is not recorded. Most values in the screen are low, and negative values occur. The compounds are a random part of those screened.

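Whole-parasite assay of Trypanosoma brucei over 72 hours; the read-out is not stated. Compounds at 30 µM. The record gives no direction; compounds that gave an IC50 in retests scored well above the rest, so higher reads as stronger inhibition. Values scatter widely below zero; nearly all retest evidence comes from the higher of the two concentrations used. Of about 64,000 compounds tested this way, about 940 (1.5%) reached 50% or more in at least one test.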

{"compound": "Cc1cc(N(C)Cc2snnc2C)nc(-c2cccnc2)n1", "Percent Effect": 6.948}
{"compound": "COc1ccccc1Oc1ncccc1CNC(=O)C1(C)CCCNC1", "stereo": "configuration not stated", "Percent Effect": -3.332}
{"compound": "CCc1cnc(N)nc1NCCn1cc(Cl)cn1", "Percent Effect": -18.82}
{"compound": "O=C(CN1CC(c2nc(-c3ccco3)no2)C1)NCCc1ccccc1.O=C(O)C(=O)O", "Percent Effect": 10.28}
{"compound": "CCOCCNC(=O)c1cccnc1Sc1cc(OC)ccc1OC", "Percent Effect": -25.02}
{"compound": "Cc1nc(N2CCOCC2)ncc1-c1cc(O)nc(N2CCCCC2)n1", "Percent Effect": -14.61}
{"compound": "O=c1[nH]ccc2cc(-c3cc(O)cc(CCC4CCCCN4)c3)ccc12", "stereo": "configuration not stated", "Percent Effect": 46.94}
{"compound": "NC(=O)c1cncc(-n2ccc(-c3cnccn3)n2)c1", "Percent Effect": -83.65}
{"compound": "Cc1nc(N2CCC(CN3CCCC3)CC2)c2cnn(C)c2n1", "Percent Effect": -4.192}
{"compound": "O=C(O)C(F)(F)F.[H][C@@]12CN(CC)C[C@]1(C(=O)N(C)C)CCC21CCN(C(=O)NC(C)C)CC1", "Percent Effect": -15.01}
{"compound": "Cn1ccnc1CN1CCc2c(COCC3CC3)nn(C)c2C1", "Percent Effect": -5.594}
{"compound": "O=C(NCc1cccc(F)c1)N1CCc2ncnc(NC3CC3)c2CC1", "Percent Effect": -71.48}
{"compound": "CCc1cnc(CNC(=O)N2CCCC(C(=O)NC)C2)s1", "stereo": "configuration not stated", "Percent Effect": -8.71}
{"compound": "CC(C)CNC(=O)CNC(=O)NCC(O)c1ccc2ccccc2c1", "stereo": "configuration not stated", "Percent Effect": -15.09}
{"compound": "CCCc1cc(C(=O)N2CCC3(CCCN(CCO)C3=O)C2)cs1", "stereo": "configuration not stated", "Percent Effect": -22.6}
{"compound": "CN(Cc1ccsc1)C(=O)c1n[nH]c(N)c1-c1ccccc1", "Percent Effect": -30.81}
{"compound": "Cc1nc(N2CCCC(OCc3ccccn3)C2)c2c(C)noc2n1", "stereo": "configuration not stated", "Percent Effect": -1.331}
{"compound": "CC(C)c1nc2n(n1)CC(NCC(=O)N(C)Cc1cccs1)CC2", "stereo": "configuration not stated", "Percent Effect": -8.248}
{"compound": "CCN(CC)CCn1c(=O)oc2ccccc21.Cl", "Percent Effect": -24.39}
{"compound": "[H][C@@]12OCCN(C(=O)C3CCOCC3)[C@@]1([H])CC[C@@H]2OCC1CC1", "Percent Effect": -28.7}
{"compound": "COc1ccccc1OCc1nc2cc3c(cc2c(=O)o1)OCCCO3", "Percent Effect": -60.53}
{"compound": "CCOc1ccccc1N(C)Cc1nccn1C", "Percent Effect": -32.89}
{"compound": "Cc1nc(CN2CCC3(CCCO3)CCC2=O)no1", "stereo": "configuration not stated", "Percent Effect": 15.51}
{"compound": "O=C(c1ccc(NC2CC2)nc1)N1CCCC(n2cccn2)C1", "stereo": "configuration not stated", "Percent Effect": -46.83}
{"compound": "CCN(CC)c1ccc(CNC(=O)c2cnc(C)cn2)cn1", "Percent Effect": 10.04}
{"compound": "CCN(C)C(=O)c1cc(-c2cn(C(C)C)cn2)n2ccccc12", "Percent Effect": -67.73}
{"compound": "Cc1ccc(C)c2c(O)cc(CNCc3ccc(S(N)(=O)=O)cc3)nc12", "Percent Effect": -52.15}
{"compound": "Cc1nc(C)c(C(=O)Nc2ccc(-c3nnc(N(C)C)o3)cc2)o1", "Percent Effect": -7.521}
{"compound": "COCC1CC2(CCN(C(=O)c3cc(C)oc3C)CC2)CN1C(C)C.O=C(O)C(F)(F)F", "stereo": "configuration not stated", "Percent Effect": -1.114}
{"compound": "CNC(=O)C1CCCCN1C(=O)c1n[nH]c(=O)c2ccccc12", "stereo": "configuration not stated", "Percent Effect": -5.054}
{"compound": "c1ccc2sc(N3CCCC4(CCOC4)C3)nc2c1", "stereo": "configuration not stated", "Percent Effect": 7.748}
{"compound": "COC(=O)CC(NC(=O)CCn1cccn1)c1ccc(C)cc1", "stereo": "configuration not stated", "Percent Effect": -57.4}
{"compound": "CSc1cccc(CNC(=O)[C@H]2CNC[C@H](C(=O)N3CCOCC3)C2)c1", "Percent Effect": -16.19}
{"compound": "Cn1cccc1C(=O)N1CCC2(CC1)CN(c1cncnc1)C(=O)CO2", "Percent Effect": -1.064}
{"compound": "CS(=O)(=O)NCc1cc(-c2cc(F)cc(F)c2)nc(N2CC[C@H](O)C2)n1", "Percent Effect": -13.26}
{"compound": "Cn1cc(C2(C)CN(c3ncccc3C#N)CCO2)cn1", "stereo": "configuration not stated", "Percent Effect": 5.839}
{"compound": "CC(C)(C)c1cn2nc(N3CCOC(Cn4cncn4)C3)sc2n1", "stereo": "configuration not stated", "Percent Effect": -6.314}
{"compound": "CC1(NC(=O)Cc2csc(NC(=O)c3ccccc3)n2)CCS(=O)(=O)C1", "stereo": "configuration not stated", "Percent Effect": -25.35}
{"compound": "COc1ccc(CNC(=O)NC2CCN(c3ccccc3)C2=O)cc1", "stereo": "configuration not stated", "Percent Effect": 15.87}
{"compound": "Cc1cc(NC(=O)CNC(C)(C)c2nc(C)c(C)s2)no1", "Percent Effect": -23.88}
{"compound": "COCC(NC1CSCCSC1)c1ccnn1C", "stereo": "configuration not stated", "Percent Effect": -8.109}
{"compound": "Cc1cnc2c(S(=O)(=O)NC3CCS(=O)(=O)C3)cccc2c1", "stereo": "configuration not stated", "Percent Effect": 21.37}
{"compound": "Cc1nc(NCC23CCCN2CCC3)cc(C2CCCNC2)n1", "stereo": "configuration not stated", "Percent Effect": -24.24}
{"compound": "Nc1nc(CC(=O)N2CCCC(CCc3cccc(F)c3)C2)cc(=O)[nH]1", "stereo": "configuration not stated", "Percent Effect": -51.03}
{"compound": "CCOc1ccc(CN2CCC(c3ccn[nH]3)C2)cc1CO", "stereo": "configuration not stated", "Percent Effect": -24.31}
{"compound": "Cc1nc(CN2CCC3(C2)CN(C(=O)c2ccc[nH]2)C3)cs1", "Percent Effect": -83.5}
{"compound": "O=C(O)C(F)(F)F.O=C(O)C(F)(F)F.c1ccc(COC[C@@H]2CCC[C@]23CN(Cc2nccs2)CCO3)nc1", "Percent Effect": -346.2}
{"compound": "COCCn1cnc(-c2nc(C(=O)N3CCOCC3)c3ccccn23)c1", "Percent Effect": -0.4889}
{"compound": "Cc1nccn1CC1CCN(C(=O)c2ccccc2)CC1", "Percent Effect": -35.8}
{"compound": "CC(=O)NC1CCCN(C(=O)NCc2cccnc2N(C)C)C1", "stereo": "configuration not stated", "Percent Effect": -17.13}
{"compound": "CCN1CCN(S(=O)(=O)c2cc(C)c(Cl)cc2Cl)CC1", "Percent Effect": -40.98}
{"compound": "CC(C)OC(=O)N1CCC(Cc2ccc(C(=O)O)cc2)C1", "stereo": "configuration not stated", "Percent Effect": 6.223}
{"compound": "Cc1ncsc1-c1nnc(C2CCN(Cc3ccc(Cl)cc3)CC2)o1", "Percent Effect": 0.5336}
{"compound": "CC1CCN(c2ncc3c(n2)CN(Cc2cccc(F)c2)C3=O)CC1", "Percent Effect": -36.51}

6 of the entries, repeated:

- Cc1cc(N(C)Cc2snnc2C)nc(-c2cccnc2)n1 | 6.948%
- CC(C)CNC(=O)CNC(=O)NCC(O)c1ccc2ccccc2c1 (configuration not stated) | -15.09%
- CC(C)OC(=O)N1CCC(Cc2ccc(C(=O)O)cc2)C1 (configuration not stated) | 6.223%
- COc1ccccc1Oc1ncccc1CNC(=O)C1(C)CCCNC1 (configuration not stated) | -3.332%
- O=C(c1ccc(NC2CC2)nc1)N1CCCC(n2cccn2)C1 (configuration not stated) | -46.83%
- CCOCCNC(=O)c1cccnc1Sc1cc(OC)ccc1OC | -25.02%

The values are deposited in ChEMBL (CHEMBL3988442, “University of Dundee, Small-Polar-MMV Screening Library” (2021)).